In article PMC3728025:
Results are given in words; binding and its absence hold for the method and conditions named.

Columns and labels:
[1] = target: 3Cys3Ala Atox1 (human) (UniProt O00244); assay: SEC; Superdex 75 10/300, 6°C, 40 mM TrisHCl, 50 mM NaCl, pH 7.6; 150 µM protein with 1 eq. CuCl2 pre-added; no CisPt; both purified
[2] = target: 3Cys3Ala Atox1 (human) (UniProt O00244); assay: SEC; Superdex 75 10/300, 6°C, 40 mM TrisHCl, 50 mM NaCl, pH 7.6; 150 µM apo-protein with 5 eq. (excess) CisPt, incubated 10 min; both purified
[3] = target: 3Cys3Ala Atox1 (human) (UniProt O00244); assay: SEC; Superdex 75 10/300 analytical column, 6°C, 40 mM TrisHCl, 50 mM NaCl, pH 7.6; 150 µM apo-protein, 100 µl injected; no Cu, no CisPt; both purified
[4] = target: 3Cys3Ala Atox1 (human) (UniProt O00244); assay: SEC; Superdex 75 10/300, 6°C, 40 mM TrisHCl, 50 mM NaCl, pH 7.6; 150 µM protein with 1 eq. Cu and 1 or 5 eq. CisPt, or preformed protein-CisPt (1:1) treated with Cu; incubated 10 min; both purified

Measured: binding

B1: 3Cys3Ala Atox1 (protein, UniProt O00244 1-68)
chain: MPKHEFSVDMTAGGAAEAVSRVLNKLGGVKYDIDLPNKKVAIESEHSMDTLLATLKKTGKTVSYLGLE
no binding (tested: 150 µM): [1] | [2] | [3] | [4]
